Source: paper PMC6978386
Results are given in words; binding and its absence hold for the method and conditions named. In cells and extracts the contact can be indirect. Some results given as binding are weak or reduced against the parent protein; the word gives no strength.

Chains of the proteins cited; added tags and fusions are not shown.
UniProt P46934: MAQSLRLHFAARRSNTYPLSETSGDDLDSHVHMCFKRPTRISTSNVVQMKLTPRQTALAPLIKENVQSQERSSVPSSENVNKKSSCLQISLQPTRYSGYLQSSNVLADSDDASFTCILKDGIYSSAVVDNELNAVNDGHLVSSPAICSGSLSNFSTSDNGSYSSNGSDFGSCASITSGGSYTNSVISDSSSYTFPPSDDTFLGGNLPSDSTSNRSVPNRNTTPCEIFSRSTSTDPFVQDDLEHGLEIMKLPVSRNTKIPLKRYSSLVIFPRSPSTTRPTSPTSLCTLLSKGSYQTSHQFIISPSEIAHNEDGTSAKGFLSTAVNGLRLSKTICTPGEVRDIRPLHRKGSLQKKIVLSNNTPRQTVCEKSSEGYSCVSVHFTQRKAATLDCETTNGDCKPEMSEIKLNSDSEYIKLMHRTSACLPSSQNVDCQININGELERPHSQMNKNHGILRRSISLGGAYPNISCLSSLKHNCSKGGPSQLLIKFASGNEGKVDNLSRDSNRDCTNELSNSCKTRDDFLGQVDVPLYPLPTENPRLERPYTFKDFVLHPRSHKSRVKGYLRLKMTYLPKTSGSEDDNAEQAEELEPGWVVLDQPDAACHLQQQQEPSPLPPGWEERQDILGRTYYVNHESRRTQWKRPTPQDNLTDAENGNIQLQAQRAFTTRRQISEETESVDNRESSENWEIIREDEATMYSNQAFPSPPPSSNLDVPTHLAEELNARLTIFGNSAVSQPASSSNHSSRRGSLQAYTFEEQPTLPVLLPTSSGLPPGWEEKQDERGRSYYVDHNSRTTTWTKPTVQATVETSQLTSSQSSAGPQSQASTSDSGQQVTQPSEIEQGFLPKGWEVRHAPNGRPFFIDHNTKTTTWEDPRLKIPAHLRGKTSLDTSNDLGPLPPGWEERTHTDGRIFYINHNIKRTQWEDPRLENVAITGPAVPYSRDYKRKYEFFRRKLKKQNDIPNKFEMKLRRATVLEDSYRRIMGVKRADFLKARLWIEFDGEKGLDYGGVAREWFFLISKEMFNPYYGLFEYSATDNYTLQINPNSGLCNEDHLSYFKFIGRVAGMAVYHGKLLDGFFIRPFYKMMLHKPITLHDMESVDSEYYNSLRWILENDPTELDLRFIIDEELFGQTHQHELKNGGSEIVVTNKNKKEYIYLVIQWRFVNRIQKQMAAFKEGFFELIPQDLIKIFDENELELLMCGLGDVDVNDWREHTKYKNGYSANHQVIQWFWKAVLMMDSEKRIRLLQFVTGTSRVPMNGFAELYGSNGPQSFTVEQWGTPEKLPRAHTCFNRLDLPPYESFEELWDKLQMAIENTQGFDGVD
UniProt P21796: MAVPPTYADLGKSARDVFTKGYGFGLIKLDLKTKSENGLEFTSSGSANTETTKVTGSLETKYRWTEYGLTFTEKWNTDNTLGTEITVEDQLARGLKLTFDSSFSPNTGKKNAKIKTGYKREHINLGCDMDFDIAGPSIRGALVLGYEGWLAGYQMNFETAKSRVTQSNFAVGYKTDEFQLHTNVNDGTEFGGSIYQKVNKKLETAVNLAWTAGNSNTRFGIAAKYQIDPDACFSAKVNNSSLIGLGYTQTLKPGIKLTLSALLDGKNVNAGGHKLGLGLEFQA

Biological target: Neuronal precursor cell-expressed developmentally downregulated 4 (Nedd4), endogenous (human (endogenous in A375)) (UniProt P46934)
Assay: co-IP; endogenous proteins, A375 whole-cell lysate (1% NP40 lysis buffer, 300 mM NaCl); IP with anti-Nedd4 or control IgG, immunoblot; cells treated with DMSO or erastin (5 µM, 4 h), then MG132 for 4 h

With “voltage-dependent anion channel 1 (VDAC1), endogenous (from UniProt P21796 1-283)” the binding was “binds”.
